PMC10374912 (Nature Communications, 2023)
No constants are given. Whether binding was seen depends on the method and setting. Binding seen in cells or lysates may run through a third protein. Some entries that bind do so weakly or less than the wild type.

Assays:
[1] = molecular target: 6XHis-3XFlag-tagged Cwt1 (C. albicans) (UniProt Q59M50); experiment: co-IP; C. albicans whole cell lysates from YPGal cultures before and after AA or KCN treatment; anti-Flag or anti-HA antibody, Protein G Dynabeads; F300 buffer (50 mM HEPES-KOH pH 7.2, 300 mM KOAc, 10% glycerol) with 0.02% IGEPAL-CA630; Benzonase-treated; immunoblot
[2] = molecular target: Zcf11-6XHis-3XFlag (C. albicans); experiment: as above

Molecule	binding [1]	binding [2]
3XHA-tagged Zcf2 (from UniProt A0A1D8PDI4 1-775)	no binding	–
Cwt1-3XHA (protein, UniProt Q59M50 1-578) MSTMSTQKANSSTPGETDSSSSLPPPEITEPTYKKPEKSTKRRKKKLEIACVYCRRSHMICDESRPCQRCIKRGIAHLCYDEPSNSRQRKKAAALRKTQSEGAPMVTSPITLPLTGSTGNQSPLPLPPLQASQSDIRSAPKTENSLQFSQPALHQQQMQENPQGASQSVHTNNTHIYSSQNQQQQPQHQQQLQQQQPQPQPQSRLIKNSVLSQTLPYNQQPFFYSEHANSEFSSLNDFLSMIDDPELVNGALNDDTDGLLNFGVGNNNNSGGSNSNINNTHNNNNNGFSISGGNSTTNLNAVLAYSPNSNLFPPTFGNEADSTQIQSQQQQPELTQQPPALNPVKVEPQAEKTEQQPVISDSARDKFFLTAADPTTEISPEERLKQVIKAKLEAGLLQPYNYAKGYARLQRYMDNYMNISSRQRILKPLSIFRPAFRAIARTLKDVDLVLVEESFERMLLDYDRVFTAMAIPACLWRRTGEIYRGNKEFASLVGVTTDDLKDGKLAIYELMSEESAVNFWEKYGAIAFDKGQKAVLTSCNLRTRDGIKRKSCCFSFTIRRDRYNIPSCIVGNFIPIDP	–	binds
